# Reference: publication PMC4879868
# Target: T1, BirA-SH3TC2 (UniProt Q8TF17)
# T1 sequence: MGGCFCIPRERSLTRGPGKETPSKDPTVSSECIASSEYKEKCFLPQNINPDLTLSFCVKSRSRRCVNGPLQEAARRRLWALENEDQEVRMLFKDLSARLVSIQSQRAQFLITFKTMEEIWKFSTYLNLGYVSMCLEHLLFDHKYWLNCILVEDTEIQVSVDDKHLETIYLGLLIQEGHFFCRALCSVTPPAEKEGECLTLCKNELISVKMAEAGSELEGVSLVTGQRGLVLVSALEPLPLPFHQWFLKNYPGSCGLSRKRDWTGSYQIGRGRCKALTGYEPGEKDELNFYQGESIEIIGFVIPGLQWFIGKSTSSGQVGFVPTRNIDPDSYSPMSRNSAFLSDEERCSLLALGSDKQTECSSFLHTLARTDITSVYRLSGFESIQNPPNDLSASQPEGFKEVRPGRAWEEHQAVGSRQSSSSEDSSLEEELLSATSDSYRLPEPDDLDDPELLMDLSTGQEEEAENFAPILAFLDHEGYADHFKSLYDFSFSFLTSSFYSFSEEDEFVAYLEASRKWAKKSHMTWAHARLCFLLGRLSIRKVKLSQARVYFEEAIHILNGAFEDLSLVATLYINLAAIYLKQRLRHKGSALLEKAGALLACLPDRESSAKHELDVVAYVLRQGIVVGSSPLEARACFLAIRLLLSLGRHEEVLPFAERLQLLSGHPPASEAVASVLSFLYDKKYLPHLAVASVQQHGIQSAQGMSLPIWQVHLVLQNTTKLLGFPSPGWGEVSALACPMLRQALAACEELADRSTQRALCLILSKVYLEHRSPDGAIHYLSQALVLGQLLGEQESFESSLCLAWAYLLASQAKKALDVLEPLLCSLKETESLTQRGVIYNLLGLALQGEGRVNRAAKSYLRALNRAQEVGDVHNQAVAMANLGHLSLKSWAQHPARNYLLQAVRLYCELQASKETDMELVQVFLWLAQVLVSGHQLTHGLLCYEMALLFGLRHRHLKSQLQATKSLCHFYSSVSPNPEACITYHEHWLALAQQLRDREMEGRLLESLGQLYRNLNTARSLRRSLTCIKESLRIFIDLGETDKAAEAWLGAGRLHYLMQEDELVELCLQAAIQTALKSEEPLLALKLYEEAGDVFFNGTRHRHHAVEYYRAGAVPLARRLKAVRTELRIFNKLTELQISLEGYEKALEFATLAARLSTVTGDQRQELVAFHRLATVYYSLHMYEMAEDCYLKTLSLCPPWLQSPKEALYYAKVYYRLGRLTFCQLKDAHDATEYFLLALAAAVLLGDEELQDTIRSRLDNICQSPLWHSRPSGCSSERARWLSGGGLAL
# Assay: proximity labelling; BioID: RPE cells stably expressing BirA or BirA-SH3TC2, 50 μM biotin for 24 h at 37 °C; biotinylated proteins isolated from the lysate on streptavidin beads; LC-MSMS and immunoblot
substance,measurement,value
integrin-α6 (receptor),binding,binds

# No constants are given. Whether binding was seen depends on the method and setting. Binding seen in cells or lysates may run through a third protein. These calls come from enrichment with a bait or labelling near it, and not all partners need be listed.
